Reference: PubChem BioAssay AID1625 (Sanford-Burnham Center for Chemical Genomics, 2009)
Screen size: about 190,000 compounds; about 570 (0.3%) were called active. Inconclusive results, whose numbers are uncertain, are shown with a selection of clear calls.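 Rule for the calls: active = z-score above 3 at 5 µM with at least 500 cells counted in the well; inconclusive = wells under 500 cells, flagged as cytotoxic or low count; inactive = the rest.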

assay: up-regulation of insulin promoter-GFP reporter – imaging, high-content screening, mouse beta cells (AID 1625); conditions: MIN6 insulin promoter-GFP reporter, at 5 µM, active compounds read high

SMILES | z-score
O=[N+]([O-])c1ccc(/C=N/n2cnc3ccccc32)s1 | inconclusive: -3.87
CCOC(=O)Cc1c(C)nc2c(-c3cccc(Br)c3)c[nH]n2c1=O | inactive: 0.42
N/C(=N\OC(=O)C1CCCCC1)c1cccc([N+](=O)[O-])c1 | active: 3.01
CCC(C)(C)c1ccc(OCCCC[n+]2ccccc2)c(C(C)(C)CC)c1 | inconclusive: -2.45
Nc1nc(CN2CCN(c3cccc(Cl)c3)CC2)nc(N2CCCc3ccccc32)n1 | inactive: 0.68
COc1ccc2cc1Oc1ccc(cc1)CC1c3c(cc(OC)c4c3Oc3cc5c(cc3O4)CCNC5C2)CCN1C (stereo unspecified) | inconclusive: -3.09
O=C(Nc1ccc(S(=O)(=O)N2CCCc3ccccc32)cc1)C1CCCO1 (stereo unspecified) | inactive: 0.82
Cc1cc(C)nc(N2CCC(C(=O)Nc3ccc4c(c3)OCCO4)CC2)n1 | active: 3.37
CC(=O)Nc1ccc(NC2=C(Cl)C(=O)c3ccccc3C2=O)cc1 | inconclusive: -2.73
CC(/C=N/NC(=O)c1ccncc1)=C\c1ccc(C(C)C)cc1 | active: 3.19
CCN1CCS/C1=C/C=C/C1=[N+](CC)CCS1 | inconclusive: -0.88
CCOC(=O)c1ccc(CSc2nnc(-c3ccncc3)n2N)cc1 | active: 3.8
C=C1C(=O)[C@@]23[C@H](O)C[C@@H]4C(C)(C)CC[C@H](O)[C@@]4(C)[C@@H]2CC[C@@H]1[C@H]3O | inconclusive: -0.39
O=C1/C(=N\S(=O)(=O)c2cccs2)C([n+]2cccc(Cc3ccccc3)c2)=C([O-])c2ccccc21 | active: 6.82
O=c1c(Cl)c(Cl)cnn1Cc1nnc(-c2ccc(Cl)cc2)o1 | inconclusive: -4.64
CCc1ccc(NC(=O)CSc2nc3n[nH]c(C)c3c(=N)n2-c2cccc(OC)c2)cc1 | inconclusive: -1.65
CCN(CC)S(=O)(=O)c1cccc(NC(=O)COC(=O)C2CC3C=CC2C3)c1 (stereo unspecified) | inactive: 0.89
CCc1ccc(/C=C/c2c[nH]c3ccccc23)[n+](CC)c1 | inconclusive: -2.02
CCC(=O)N1CCN(c2ccccc2NC(=O)COc2ccccc2Cl)CC1 | inactive: -1.45

SMILES | z-score
C=CCc1c(C)nc(-c2ccccc2)nc1N/N=C(\C)c1ccc(N)cc1 | inconclusive: -2.23
CCC(=O)OCC(=O)c1c(N)n(Cc2ccccc2)c(=O)n(C)c1=O | active: 3.29
O=c1c(-c2ccccc2)c1-c1ccccc1 | inconclusive: -1.38
Cc1nc(-c2ccccn2)nc(SCC(=O)c2ccc(F)cc2)c1Cl | inactive: 0
CCOC(=O)CSc1nnc(NC(=O)c2cc([N+](=O)[O-])cc([N+](=O)[O-])c2)s1 | inactive: 0.02
COc1c2c(nc3ccccc13)OC(C(C)(O)COC(C)=O)C2 (stereo unspecified) | active: 3.26
CC1CCN(S(=O)(=O)c2ccc3c(c2)c(=O)c(C(=O)N2CCCCC2)cn3C)CC1 | active: 4.9
COc1ccc(-[n+]2c(C)cc(/C=C3\Sc4ccccc4N3C)cc2C)cc1 | inconclusive: 15.7
CN1C(=O)N(C)C2(c3ccccc3)Nn3c(s/c(=C/c4ccccc4)c3=O)=NC12c1ccccc1 (stereo unspecified) | inconclusive: -2.19
CC1CCc2cc(F)ccc2N1C(=O)CCC(=O)O (stereo unspecified) | inconclusive: -3.64
On1onc2c3cc(-c4ccccc4)nc3ccc21 | inconclusive: -11
Cc1nn(Cc2ccc(F)cc2)c(C)c1NC(=O)c1cnn2c1NC(c1ccccc1)CC2C(F)(F)F (stereo unspecified) | inactive: 0.22
CC(=O)Oc1c(C)cc(Cl)cc1C(=O)Nc1ccc([N+](=O)[O-])cc1Cl | inconclusive: -2.21
O=S(=O)(c1ccc(NC(=S)NCCc2ccccc2)cc1)N1CCOCC1 | inconclusive: -6.84
Cc1ccc(NC(=O)CSc2nnc(-c3cnccn3)n2Cc2ccco2)cc1C | inconclusive: -1.28
Cc1c(Cl)cccc1N/C(SCC(=O)N1CCCCCC1)=C(/C#N)c1nc2ccccc2s1 | inconclusive: -2.46
COc1ccc2cc3[n+](cc2c1OC)CCc1cc2c(cc1-3)OCO2 | inconclusive: -4.43
CCOc1ccc(-n2c(-c3ccc(Br)cc3)c[n+]3c2CCCCC3)cc1 | inconclusive: -5.73
CC12COC3(C(=O)NCCc4ccccc4)CC1CCC32C (stereo unspecified) | inactive: 0.6

In the list so far, these contain a halogen.
SMILES | z-score
CCOC(=O)Cc1c(C)nc2c(-c3cccc(Br)c3)c[nH]n2c1=O | inactive: 0.42
Nc1nc(CN2CCN(c3cccc(Cl)c3)CC2)nc(N2CCCc3ccccc32)n1 | inactive: 0.68
CC(=O)Nc1ccc(NC2=C(Cl)C(=O)c3ccccc3C2=O)cc1 | inconclusive: -2.73
O=c1c(Cl)c(Cl)cnn1Cc1nnc(-c2ccc(Cl)cc2)o1 | inconclusive: -4.64
CCC(=O)N1CCN(c2ccccc2NC(=O)COc2ccccc2Cl)CC1 | inactive: -1.45
Cc1nc(-c2ccccn2)nc(SCC(=O)c2ccc(F)cc2)c1Cl | inactive: 0
CC1CCc2cc(F)ccc2N1C(=O)CCC(=O)O (stereo unspecified) | inconclusive: -3.64
Cc1nn(Cc2ccc(F)cc2)c(C)c1NC(=O)c1cnn2c1NC(c1ccccc1)CC2C(F)(F)F (stereo unspecified) | inactive: 0.22
CC(=O)Oc1c(C)cc(Cl)cc1C(=O)Nc1ccc([N+](=O)[O-])cc1Cl | inconclusive: -2.21
Cc1c(Cl)cccc1N/C(SCC(=O)N1CCCCCC1)=C(/C#N)c1nc2ccccc2s1 | inconclusive: -2.46
CCOc1ccc(-n2c(-c3ccc(Br)cc3)c[n+]3c2CCCCC3)cc1 | inconclusive: -5.73

2 of these compounds in a different format:
SMILES	z-score
O=C(Nc1ccc(S(=O)(=O)N2CCCc3ccccc32)cc1)C1CCCO1 (stereo unspecified)	inactive: 0.82
CCN(CC)S(=O)(=O)c1cccc(NC(=O)COC(=O)C2CC3C=CC2C3)c1 (stereo unspecified)	inactive: 0.89

Next part

SMILES | z-score
CCCCCCc1cc2cc(-c3nnc(-c4ccccc4O)o3)c(=O)oc2cc1O | active: 7.49
Cc1cccc(C)c1NC(=O)C(NC=O)c1ccccc1Cl (stereo unspecified) | inconclusive: -5.15
CCCCCn1c2c(c(=N)c3ccccc31)CCC2 | inconclusive: -3.92
CCN(CC)CCn1c(=N)n(CC(O)c2ccco2)c2ccccc21 (stereo unspecified) | inconclusive: -1.87
O=S(=O)(c1cccs1)N1CCc2ccccc21 | inactive: 0.85
CCc1ccc(-n2cc(-c3ccc(F)cc3)[n+]3c2SCCC3)cc1 | inconclusive: -3.27
COc1cccc(NC(=O)Cn2c(-c3cncs3)nc3ccccc32)c1 | active: 5.27
CN(C)c1ccc(/C=c2\sc3n(c2=O)CCCN=3)cc1 | inactive: 1.58
CC(=O)C(=Cc1cn(-c2ccccc2)nc1-c1ccccc1)C(C)=O | active: 3.2
COc1cccc2c1C(CO)N1C(C#N)C3CC(C(=O)O)C(C1C2)N3C (stereo unspecified) | inconclusive: -1.89
CCOC(=O)c1sc2nc(CC(=O)OC)nc(NCC(=O)OC)c2c1C | inconclusive: -1.64
O=C(NC(=S)N1CCN(c2ccccc2)CC1)c1ccc(S(=O)(=O)N2CCOCC2)cc1 | inactive: 0.57
O=C(CSc1nccc(=O)[nH]1)Nc1ccc2c(c1)OCCO2 | inactive: -0.61
CN(C)CCCNS(=O)(=O)c1ccc(N2CCC(c3ccc(Cl)cc3)=N2)cc1 | inconclusive: -1.32
O=C(Nc1cnn(C23CC4CC(CC(C4)C2)C3)c1)c1cnn2c(C(F)(F)F)cc(-c3ccco3)nc12 | inconclusive: -10.8
COc1cc(CC(=O)Nc2ccc(S(=O)(=O)N(C)C)cc2)cc(OC)c1OC | inactive: -0.69
O=C(COC(=O)[C@H](Cc1ccccc1)NC(=O)c1ccco1)NC(c1ccccc1)c1ccccc1 | inactive: 0.24
Cc1ccc(S(=O)(=O)N(CC(=O)N2CCCCCC2)c2ccccc2)cc1 | inactive: -0.19
